In PubChem BioAssay AID602313 (National Center for Advancing Translational Sciences (NCATS), 2012):
In all, about 390,000 compounds went through this assay and about 760 (0.19%) were called active. This list was built around the results that the source calls inconclusive (neither active nor inactive); the mix of calls is not that of the screen. Calls come from the whole dose curve; as a rule, active = well fitted inhibition curve with a large enough effect; inconclusive = small, poorly fitted or top-dose-only effect; inactive = flat fitted curve, though single readings scatter. A potency beside an inconclusive call is a rough fit, not a confirmed value.

experiment: qHTS for Inhibitors of Vif-A3F Interactions: qHTS; conditions: HeLa A3F-eYFP + Vif (tagged APOBEC3F with the HIV-1 protein that degrades it), YFP fluorescence increase; series mostly up to 46.1 µM; note: nearly all actives have a fitted effect of over 65% in size
In short: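 Fluorescence increase (Ex 488/Em 500-530) after overnight compound treatment at 37 deg C flags inhibition of Vif-driven A3F-eYFP loss in stable HeLa A3F-eYFP/Vif cells seeded overnight beforehand.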
Potency is the fitted concentration of half-maximal effect.

Q: For `NS(=O)(=O)c1ccc(CCNC(=O)CCCNC(=O)c2ccc(Cl)cc2)cc1`, which Potency is on record?
A: Its Potency is inconclusive: 15.8 µM [inhibitor, partial curve, poor fit].

Q: With `CCOC(=O)CNc1ncc(C(F)(F)F)cc1Cl` as the compound, how does the Potency read?
A: Its Potency is inconclusive: 6.31 µM [inhibitor, single point].

Q: Which Potency does the source give for `Cc1ccc(-n2nc3c(N4CCCC(C(=O)NCc5ccccc5C)C4)nnc(C)c3c2C)cc1` (centres undefined) here?
A: The Potency was active: 12.6 µM.

Q: For `CCCC(C)c1nnc(NC(=O)CCS(=O)(=O)Cc2ccccc2)s1` (centres undefined), which Potency is on record?
A: Its Potency is “inactive”.

Q: With `CCCc1nc2cc(Cl)c([N+](=O)[O-])cc2o1` as the compound, how does the Potency read?
A: Its Potency is inconclusive: 6.31 µM [inhibitor, partial curve, poor fit].

Q: For `CCn1cc(/C=C2\SC(=O)N(CC(=O)Nc3ccc4c(c3)OCO4)C2=O)c2ccccc21`, which Potency is on record?
A: The Potency was inconclusive: 35.5 µM [inhibitor, single point].

Q: With `C1=CC2=NC34CCCCC3CC3=C(CCCC3)N4C2=CC1=NC1CCCCC1` (centres undefined) as the compound, how does the Potency read?
A: Its Potency is “inactive”.

Q: Which Potency does the source give for `CCOC(=O)C1CSC(CC(=O)Nc2ccc(OCC)cc2)C(=O)N1` (centres undefined) here?
A: The Potency was inconclusive: 3.16 µM [inhibitor, single point].

Q: With `CCN(CC)c1ccc(/C=N/N2CC(=O)NC2=S)cc1` as the compound, how does the Potency read?
A: Its Potency is inconclusive: 35.5 µM [inhibitor, single point].

Q: With `COC(=O)c1ccc(OC)c(CN2CCCN(Cc3cc(C)ccc3C)S2(=O)=O)c1` as the compound, how does the Potency read?
A: The Potency was inconclusive: 5.01 µM [inhibitor, single point].

Q: With `O=C(Nc1cccc(Cl)c1)Nc1sccc1-c1nc2ccccc2s1` as the compound, how does the Potency read?
A: Its Potency is inconclusive: 20 µM [inhibitor, single point].

Q: With `CCc1ccc(-c2csc(NC(=O)C3CC(=O)N(c4ccc5c(c4)OCCO5)C3)n2)cc1` (centres undefined) as the compound, how does the Potency read?
A: Its Potency is inconclusive: 11.2 µM [inhibitor, partial curve, poor fit].

Q: For `N#Cc1ccsc1NC(=O)COC(=O)c1ccc(Br)o1`, which Potency is on record?
A: The Potency was inconclusive: 35.5 µM [inhibitor, single point].

Q: With `CS(=O)(=O)N1CCC(C(=O)Nc2ccc(F)c(Cl)c2)CC1` as the compound, how does the Potency read?
A: Its Potency is “inactive”.

Q: Which Potency does the source give for `Cc1cc(F)ccc1S(=O)(=O)Nc1ccccc1C(=O)Nc1ccccc1-c1nc2ccccc2[nH]1` here?
A: Its Potency is “inactive”.

Q: Which Potency does the source give for `Cc1cnc(C(=O)NCc2ccc(F)cc2)cn1` here?
A: The Potency was inconclusive: 25.1 µM [inhibitor, single point].

Q: Which Potency does the source give for `CC1CC2=C(NC(=S)NC2c2cccc(F)c2)/C(=C/c2cccc(F)c2)C1` (centres undefined) here?
A: Its Potency is inconclusive: 11.2 µM [inhibitor, partial curve, poor fit].

Q: Which Potency does the source give for `COc1ccc(-c2nc3ccccn3c2NC2CCCCC2)cc1SC1CCCCC1` here?
A: Its Potency is inconclusive: 28.2 µM [inhibitor, single point].

Q: With `CNCc1ccccc1Sc1cccc(O)c1` as the compound, how does the Potency read?
A: Its Potency is “inactive”.

Q: With `Cc1nc(NC(=O)c2ccccc2)sc1C` as the compound, how does the Potency read?
A: The Potency was “inactive”.

Q: Which Potency does the source give for `CCOC(=O)N1CCN(C(=O)c2cc(-c3ccncc3)nc3ccccc23)CC1` here?
A: Its Potency is inconclusive: 35.5 µM [inhibitor, single point].

Q: With `COc1ccc(OC)c(N=c2ssnc2Cl)c1` as the compound, how does the Potency read?
A: Its Potency is “inactive”.

Q: For `O=C(NC(=S)Nc1ccc2c(c1)OCCO2)c1ccco1`, which Potency is on record?
A: Its Potency is “inactive”.

Q: For `CCCn1nnc(NC(=O)C(c2ccccc2)c2ccccc2)n1`, which Potency is on record?
A: Its Potency is inconclusive: 5.62 µM [inhibitor, single point].

Q: Which Potency does the source give for `Cc1ccccc1OCC(=O)Nc1cccc(Cl)c1C` here?
A: The Potency was inconclusive: 15.8 µM [inhibitor, partial curve, poor fit].

Q: Which Potency does the source give for `COc1ccc(-n2c(C)ccc2-c2ccccc2)cn1` here?
A: The Potency was inconclusive: 35.5 µM [inhibitor, single point].

Q: For `Cc1cccc(-n2c(N)c(-c3nc4ccccc4n3C)c3nc4ccccc4nc32)c1`, which Potency is on record?
A: Its Potency is inconclusive: 10 µM [inhibitor, partial curve].

Q: With `Cc1cc(C)c2nc(SCC(=O)Nc3cc(C)on3)c(C#N)cc2c1` as the compound, how does the Potency read?
A: Its Potency is inconclusive: 8.91 µM [inhibitor, partial curve, poor fit].

Q: Which Potency does the source give for `COc1cc(C(=O)NCc2ccc3c(c2)CCN3C(=O)c2ccncc2)cc(OC)c1OC` here?
A: The Potency was “inactive”.

Q: Which Potency does the source give for `O=C(c1cc(-c2ccccc2)nc2ccccc12)N1CCN(c2ccccc2O)CC1` here?
A: Its Potency is “inactive”.

Q: With `COc1ccc(/C=C2\CCC/C(=C\c3ccc(OC)c(OC)c3OC)C2=O)c(OC)c1OC` as the compound, how does the Potency read?
A: Its Potency is inconclusive: 25.1 µM [inhibitor, single point].

Q: Which Potency does the source give for `Cc1ccc2[nH]c(=O)c(CN(C)S(=O)(=O)c3cccc4nonc34)cc2c1` here?
A: Its Potency is inconclusive: 8.91 µM [inhibitor, partial curve, poor fit].

Q: Which Potency does the source give for `COc1cccc2[nH]c3c(N4CCc5ccccc5C4)ncnc3c12` here?
A: Its Potency is inconclusive: 22.4 µM [inhibitor, partial curve, poor fit].

Q: With `COC(CN(C)C(=O)C1CCC(CNS(=O)(=O)c2ccc(C)cc2)CC1)OC` (centres undefined) as the compound, how does the Potency read?
A: Its Potency is “inactive”.

Q: With `COc1cc(OC)cc(-c2cc3nc(C)c(CCC(=O)O)c(C)n3n2)c1` as the compound, how does the Potency read?
A: Its Potency is “inactive”.

Q: Which Potency does the source give for `C/C(=N\NC(=O)COc1ccc(C)cc1Br)c1cc([N+](=O)[O-])cs1` here?
A: The Potency was inconclusive: 25.1 µM [inhibitor, single point].

Q: For `C/C(=N\Nc1cc(N2CCCCC2)nc(C)n1)c1ccc(Br)cc1`, which Potency is on record?
A: The Potency was inconclusive: 35.5 µM [inhibitor, single point].

Q: With `CCOC(=O)Cc1csc(NC(=S)NC(=O)c2ccccc2)n1` as the compound, how does the Potency read?
A: Its Potency is inconclusive: 28.2 µM [inhibitor, single point].

Q: With `Cc1ccc(NCC(=O)NNC2=NCCC2)c(C)c1` as the compound, how does the Potency read?
A: The Potency was inconclusive: 35.5 µM [inhibitor, single point].

Q: With `COc1ccccc1N(C)S(=O)(=O)c1ccc(C(=O)Nc2nc(C)c(C(C)=O)s2)cc1` as the compound, how does the Potency read?
A: The Potency was inconclusive: 17.8 µM [inhibitor, single point].

Q: For `O=c1c(Cl)c(N/N=C/c2ccc(Cl)cc2)cnn1-c1ccccc1`, which Potency is on record?
A: The Potency was inconclusive: 35.5 µM [inhibitor, single point].

Q: With `CCOC(=O)c1cc2c(=O)n3ccccc3nc2n(Cc2ccco2)c1=NC(=O)c1cc(C)cc(C)c1` as the compound, how does the Potency read?
A: The Potency was inconclusive: 31.6 µM [inhibitor, single point].

Q: For `CCn1c(CSc2nccn2C)nc2cc(C(=O)O)ccc21`, which Potency is on record?
A: Its Potency is “inactive”.

Q: For `CN(C)CCCN1C(=O)c2cccc3c([N+](=O)[O-])ccc(c23)C1=O`, which Potency is on record?
A: Its Potency is inconclusive: 3.16 µM [inhibitor, partial curve, poor fit].

Q: Which Potency does the source give for `CCOc1ccc(C2C(C#N)=C(N)SC(N)=C2C#N)cc1OCC` here?
A: Its Potency is inconclusive: 25.1 µM [inhibitor, single point].

Q: With `COc1cc(/C=C2/C(=N)N3C(=NC2=O)SN=C3S(C)(=O)=O)ccc1OS(=O)(=O)c1ccc(C)cc1` as the compound, how does the Potency read?
A: Its Potency is inconclusive: 35.5 µM [inhibitor, partial curve, poor fit].

Q: For `Cc1ccc(N(CC(=O)NCc2ccc3c(c2)OCO3)C(=O)CCC(=O)Nc2ccccn2)cc1`, which Potency is on record?
A: Its Potency is “inactive”.

Q: With `Cc1cccc(NC(=S)NC(=O)Cc2ccccc2)c1C` as the compound, how does the Potency read?
A: The Potency was “inactive”.

Q: Which Potency does the source give for `Cc1cc(SCC(=O)c2cc3ccccc3o2)nc2ccccc12` here?
A: The Potency was inconclusive: 35.5 µM [inhibitor, single point].

Q: Which Potency does the source give for `CCN(CC)S(=O)(=O)c1nnc(NC(=O)COc2cccc(C)c2)s1` here?
A: Its Potency is “inactive”.

Q: For `Cc1cc(C(=O)NCCCn2ccnc2)cs1`, which Potency is on record?
A: Its Potency is “inactive”.

Q: For `COc1ccc(/C=c2\s/c(=C(/C#N)C(=O)NCc3ccco3)n(-c3ccccc3)c2=O)cc1`, which Potency is on record?
A: Its Potency is inconclusive: 3.55 µM [inhibitor, partial curve, poor fit].

Q: For `COc1ccc(-c2cc(-c3nnc(COC(=O)c4ccncc4)o3)c3ccccc3n2)cc1OC`, which Potency is on record?
A: Its Potency is inconclusive: 10 µM [inhibitor, partial curve].

Q: With `O=C(Nc1ccccc1)[C@@H]1[C@@H]2C(=O)N(c3ccc(F)cc3)C(=O)[C@@H]2[C@H]2C=CC=NN21` as the compound, how does the Potency read?
A: The Potency was “inactive”.

Q: With `COc1ccc(CCN2C(=O)c3[nH]nc(-c4ccccc4O)c3C2c2ccc(O)c(OC)c2)cc1` (centres undefined) as the compound, how does the Potency read?
A: The Potency was “inactive”.

Q: For `O=C(CNC(=O)Cc1ccccc1)N=Nc1c(O)[nH]c2ccccc12`, which Potency is on record?
A: The Potency was inconclusive: 35.5 µM [inhibitor, single point].

Q: Which Potency does the source give for `CCCN(CCC)CC(O)Cn1cc(/C=C/C(=O)c2ccccc2)c2ccccc21` (centres undefined) here?
A: The Potency was “inactive”.

Q: Which Potency does the source give for `O=C(Cc1ccccc1)N/N=C/c1ccc2cccc(O)c2n1` here?
A: Its Potency is inconclusive: 6.31 µM [inhibitor, single point].

Q: With `N#Cc1c(-c2ccco2)nc(SCC(=O)Nc2cccc(Cl)c2)[nH]c1=O` as the compound, how does the Potency read?
A: Its Potency is “inactive”.

Q: With `Cc1ccc2nc(N3CCN(C(=O)c4ccc(F)cc4)CC3)c(C#N)cc2c1` as the compound, how does the Potency read?
A: Its Potency is inconclusive: 6.31 µM [inhibitor, single point].

Q: Which Potency does the source give for `CC(C)CSC1=NSC2=NC(=O)/C(=C\c3cccs3)C(=N)N12` here?
A: The Potency was “inactive”.

Q: For `O=C(CN(Cc1ccc(F)cc1)C(=O)c1csnn1)NCc1ccccc1`, which Potency is on record?
A: Its Potency is inconclusive: 35.5 µM [inhibitor, single point].

Q: Which Potency does the source give for `C/C(CC(=O)Nc1ccc(Cl)cc1C(F)(F)F)=N\NC(N)=S` here?
A: The Potency was inconclusive: 35.5 µM [inhibitor, single point].

Q: With `CC(=O)Nc1ccc(C=NNc2ccc([N+](=O)[O-])cc2S(=O)(=O)Nc2ccccc2C(=O)O)cc1` as the compound, how does the Potency read?
A: Its Potency is “inactive”.

Q: For `Cc1ccc(Oc2nc(-c3ccccn3)nc3ccccc23)cc1`, which Potency is on record?
A: Its Potency is inconclusive: 35.5 µM [inhibitor, single point].

Q: With `COc1cccc(C(=O)NC2C(=O)N3C(C(=O)O)=C(COC(C)=O)CSC23)c1` (centres undefined) as the compound, how does the Potency read?
A: The Potency was inconclusive: 25.1 µM [inhibitor, single point].

Q: Which Potency does the source give for `Clc1ccc(NNc2ccnc3cc(Cl)ccc23)cc1` here?
A: Its Potency is “inactive”.

Q: For `Cc1c(C(=O)OC/C(O)=C(\C#N)c2nc3ccccc3[nH]2)oc2ccccc12`, which Potency is on record?
A: The Potency was active: 22.4 µM.

Q: With `CCCCn1c(N)c(N(CCOC)C(=O)CSc2nnc(C)n2-c2ccc(OC)cc2)c(=O)[nH]c1=O` as the compound, how does the Potency read?
A: Its Potency is inconclusive: 6.31 µM [inhibitor, partial curve, poor fit].
